This note sets out measurements from US20030064071A1.

Amino acid sequences for entries named in this document (tags omitted). A change or cut given only in a name is not applied to a line headed by its entry.
UniProt Q9NNX6: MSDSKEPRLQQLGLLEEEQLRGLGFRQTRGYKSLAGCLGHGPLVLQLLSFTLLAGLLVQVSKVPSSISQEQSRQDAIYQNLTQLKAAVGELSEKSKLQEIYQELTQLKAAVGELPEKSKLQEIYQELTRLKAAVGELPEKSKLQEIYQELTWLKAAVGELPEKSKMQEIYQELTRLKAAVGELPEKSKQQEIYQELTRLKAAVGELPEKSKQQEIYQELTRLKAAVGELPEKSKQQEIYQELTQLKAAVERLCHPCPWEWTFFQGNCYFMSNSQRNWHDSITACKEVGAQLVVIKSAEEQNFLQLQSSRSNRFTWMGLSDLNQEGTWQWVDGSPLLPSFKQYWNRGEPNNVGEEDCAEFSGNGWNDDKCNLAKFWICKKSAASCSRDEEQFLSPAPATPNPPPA

Results are given in words; binding and its absence hold for the method and conditions named. Some binding calls cover weakened binding; strength is not graded here. Where a sequence is shown, tags or fusion partners need not be part of it.

The target in the experiment is T1, ICAM-3-Fc (UniProt P32942).
T1 sequence (looked up): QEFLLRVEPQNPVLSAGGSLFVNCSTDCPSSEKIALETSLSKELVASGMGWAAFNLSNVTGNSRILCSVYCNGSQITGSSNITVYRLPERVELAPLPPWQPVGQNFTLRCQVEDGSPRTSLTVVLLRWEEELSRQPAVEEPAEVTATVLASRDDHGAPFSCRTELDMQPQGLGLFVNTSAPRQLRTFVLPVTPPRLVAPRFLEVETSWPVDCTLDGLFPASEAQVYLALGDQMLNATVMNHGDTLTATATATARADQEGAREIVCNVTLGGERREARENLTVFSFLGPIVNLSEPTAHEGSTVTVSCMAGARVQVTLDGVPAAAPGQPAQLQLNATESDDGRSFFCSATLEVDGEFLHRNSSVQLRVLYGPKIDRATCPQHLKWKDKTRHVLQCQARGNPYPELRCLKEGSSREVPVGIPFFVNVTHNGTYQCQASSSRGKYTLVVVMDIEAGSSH
The experiment can be described thus: screen for molecules on DC that bind ICAM-3.

Take “DC-SIGN (from UniProt Q9NNX6 1-404) (receptor)”: the binding entry is recorded as “binds”.
